PubChem BioAssay AID743121 | NCATS, 2013
The whole screen tested about 26,000 reagents; below is a random part of them. 167 of all reagents (0.63%) were called active. 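Calls are per gene from RSA p-values that are not deposited; an individual active-marked siRNA can sensitise only weakly.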 The numbers tell different reagents against one gene apart. Further read-outs or replicates are left out here.

- Test: 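Genes whose silencing strengthens cell killing by camptothecin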 (primary screen)
- Cell system: MDA-MB-231 cells, a human breast cancer line
- Knock-down reagent: single siRNA against human genes, 20 nM siRNA (0.8 pmol per well)
- Time to read-out: 120 h (drug added 48 h after transfection, read 72 h later)
- Treatment: camptothecin 20 nM (about EC30) for 72 h; vehicle 0.1% DMSO in parallel plates
- Read-out: 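CellTiter-Glo ATP signal, scaled to control siRNA as percent viability; sensitisation given as log2 of untreated divided by camptothecin-treated viability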
- Reading the numbers: log2 vehicle/camptothecin viability: higher = stronger sensitisation to camptothecin
- Active means: 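Each gene scored by redundant siRNA activity (RSA) over its individual siRNA ratios; a gene is called active at p < 0.001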

gene symbol	siRNA no.	log2 vehicle/camptothecin viability	Call
EFCAB6 (EF-hand calcium binding domain 6)	1	-0.312	inactive
EFCAB6 (EF-hand calcium binding domain 6)	2	-0.121	inactive
EFCAB6 (EF-hand calcium binding domain 6)	3	-0.295	inactive
EFCAB6 (EF-hand calcium binding domain 6)	4	0.0214	inactive
FOXE1 (forkhead box E1)	1	-0.174	inactive
FOXE1 (forkhead box E1)	2	-0.525	inactive
FOXE1 (forkhead box E1)	3	-0.131	inactive
FOXE1 (forkhead box E1)	4	0.169	inactive
EPOR (erythropoietin receptor)	1	-0.331	inactive
EPOR (erythropoietin receptor)	2	0.0921	inactive
EPOR (erythropoietin receptor)	3	-0.321	inactive
EPOR (erythropoietin receptor)	4	0.757	inactive
CAD	1	-0.179	inactive
CAD	2	-0.289	inactive
CAD	3	0.62	inactive
CAD	4	-0.346	inactive
UCP3 (uncoupling protein 3)	1	-0.212	inactive
UCP3 (uncoupling protein 3)	2	-0.662	inactive
UCP3 (uncoupling protein 3)	3	-0.386	inactive
UCP3 (uncoupling protein 3)	4	-0.218	inactive
PGLYRP1 (peptidoglycan recognition protein 1)	1	0.471	inactive
PGLYRP1 (peptidoglycan recognition protein 1)	2	-0.534	inactive
PGLYRP1 (peptidoglycan recognition protein 1)	3	0.211	inactive
CCT2 (chaperonin containing TCP1 subunit 2)	1	-0.139	inactive
CCT2 (chaperonin containing TCP1 subunit 2)	2	-0.442	inactive
CCT2 (chaperonin containing TCP1 subunit 2)	3	-0.471	inactive
CCT2 (chaperonin containing TCP1 subunit 2)	4	-1.76	inactive
SLC3A1	1	-0.274	inactive
SLC3A1	2	0.224	inactive
SLC3A1	3	-0.354	inactive
SLC3A1	4	-0.0759	inactive
NMT2 (N-myristoyltransferase 2)	1	-0.472	inactive
NMT2 (N-myristoyltransferase 2)	2	-0.099	inactive
NMT2 (N-myristoyltransferase 2)	3	0.447	inactive
NMT2 (N-myristoyltransferase 2)	4	0.0779	inactive
CREBBP (CREB binding lysine acetyltransferase)	1	0.00564	inactive
CREBBP (CREB binding lysine acetyltransferase)	2	-0.202	inactive
CREBBP (CREB binding lysine acetyltransferase)	3	-0.264	inactive
CREBBP (CREB binding lysine acetyltransferase)	4	0.564	inactive
ABCA1 (ATP binding cassette subfamily A member 1)	1	-0.103	inactive
ABCA1 (ATP binding cassette subfamily A member 1)	2	-0.387	inactive
ABCA1 (ATP binding cassette subfamily A member 1)	3	0.36	inactive
ABCA1 (ATP binding cassette subfamily A member 1)	4	0.318	inactive
VTN (vitronectin)	1	-0.628	inactive
VTN (vitronectin)	2	0.252	inactive
VTN (vitronectin)	3	-0.457	inactive
VTN (vitronectin)	4	-0.0395	inactive
OGFRL1 (opioid growth factor receptor like 1)	1	-0.0324	inactive
OGFRL1 (opioid growth factor receptor like 1)	2	0.325	inactive
OGFRL1 (opioid growth factor receptor like 1)	3	-0.147	inactive
OGFRL1 (opioid growth factor receptor like 1)	4	-0.42	inactive
GSAP (gamma-secretase activating protein)	1	-0.156	inactive
GSAP (gamma-secretase activating protein)	2	-0.113	inactive
GSAP (gamma-secretase activating protein)	3	-0.199	inactive
GSAP (gamma-secretase activating protein)	4	-0.255	inactive
GRINA	1	-0.0943	inactive
GRINA	2	-0.172	inactive
GRINA	3	-0.593	inactive
GRINA	4	-0.529	inactive
CYB5R2 (cytochrome b5 reductase 2)	1	-0.163	inactive
CYB5R2 (cytochrome b5 reductase 2)	2	0.307	inactive
CYB5R2 (cytochrome b5 reductase 2)	3	-0.303	inactive
CYB5R2 (cytochrome b5 reductase 2)	4	-0.429	inactive
SMO (smoothened, frizzled class receptor)	1	-0.374	inactive
SMO (smoothened, frizzled class receptor)	2	-0.235	inactive
SMO (smoothened, frizzled class receptor)	3	0.103	inactive
SMO (smoothened, frizzled class receptor)	4	0.447	inactive
RXFP4 (relaxin family peptide/INSL5 receptor 4)	1	-0.468	inactive
RXFP4 (relaxin family peptide/INSL5 receptor 4)	2	-0.217	inactive
RXFP4 (relaxin family peptide/INSL5 receptor 4)	3	-0.0122	inactive
